# According to the supplement of paper PMC12889115:
# The list shows a part of the results. These are raw signals, not scaled to a control.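 First-pass screen: polymyxin B was added at a level that permeabilizes the Salmonella outer membrane while sparing the inner membrane. DMSO wells, with and without polymyxin B, defined maximum growth. Because plates differed from one another, each plate's data were ranked separately and the compounds with the lowest OD600 were carried forward as hits.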
# Tested on: Salmonella enterica serovar Typhimurium SL1344
# Test: bacterial growth OD600 after 18 h with compound and polymyxin B; higher = more bacterial growth (less inhibition)
# Conditions: 50 µM, Mueller-Hinton broth
SMILES,bacterial growth OD600 (polymyxin B 1 µg/mL),bacterial growth OD600 (polymyxin B 0.75 µg/mL)
COc1ccc(OCc2nc(C(=O)NC(C)c3ccccc3)co2)cc1 (stereo unspecified),0.668,–
O=C(c1ccc(N2CCC(NCc3cccc(OC(F)(F)F)c3)CC2)cc1)N1CCOCC1,–,0.876
CCN1CC(CNC2CCN(c3ccc(C(=O)NCc4ccc5c(c4)OCO5)cc3)CC2)CC1=O (stereo unspecified),–,0.882
COc1ccccc1CC(=O)NCc1cccnc1-n1cnc2ccccc21,0.834,–
O=C(c1ccncc1)N1CCC(C2CCN(Cc3cccnc3)CC2)C1 (stereo unspecified),0.903,–
O=C1CCC(CCC(=O)N2CCCN(C(=O)c3ccco3)CC2)(Cc2ccc3ccccc3c2)N1 (stereo unspecified),–,0.895
CCn1nc(C)c(CN2CCC(Oc3ccccc3C(=O)N3CCCCC3)CC2)c1C,0.947,–
CC(C)CC(O)C1CCN(Cc2nc(-c3ccccn3)no2)CC1 (stereo unspecified),1.03,–
CN(C(=O)c1cc(-c2cccn2C)n[nH]1)C1CCCN(CCc2ccccc2)C1 (stereo unspecified),0.947,–
O=C(NCc1ccccn1)c1coc(COc2cccc(F)c2)n1,0.905,–
Cc1ccccc1OCC1CCCN(Cc2nc(Cc3ccccc3F)no2)C1 (stereo unspecified),0.623,–
COc1cc(C)ccc1OCc1nc(C(=O)N2CCCCO2)co1,0.977,–
CSCCC(=O)N1CCC(C2(c3ccccn3)NC(=O)N(CCc3cccs3)C2=O)CC1 (stereo unspecified),–,0.895
COCCCC1CCN(C(=O)c2cn(CCc3ccccc3)nn2)CC1,0.873,–
O=C(CC1C(=O)NCCN1Cc1c(F)cccc1Cl)NCC(F)(F)F (stereo unspecified),–,0.834
C=CC[C@@H]1CC=C[C@@H](C)N1C(=O)CCc1nnc(Cc2cc(OC)ccc2OC)o1,–,0.819

SMILES,bacterial growth OD600 (polymyxin B 1 µg/mL),bacterial growth OD600 (polymyxin B 0.75 µg/mL)
CC(C)Cc1cn[nH]c1C1CCCN(Cc2cc3ccccc3[nH]2)C1 (stereo unspecified),–,0.658
COCCCN1C(=O)CC(CC(=O)N(CCO)Cc2ccccc2)(c2ccccc2OC)C1=O (stereo unspecified),–,0.796
CN(c1ncccc1CNCc1ccc2c(c1)OCCO2)C1CCCCC1,1.06,–
COc1cccc(CN(C)C(=O)c2ccc3nc(C4CCCCC4)oc3c2)c1,0.807,–
CSc1ccc(CC2(CCC(=O)NCc3c[nH]nc3-c3ccc(Cl)cc3)CCC(=O)N2)cc1 (stereo unspecified),–,0.818
Cc1csc(C(C)N(C)C(=O)c2cc(Cn3nc(C)cc3C)[nH]n2)n1 (stereo unspecified),–,0.789
CC(C)(CO)CN1CCCC(C(=O)Nc2cccc(-c3ccc(F)cc3)c2)C1 (stereo unspecified),0.842,–
CCOC(=O)C1(CC2CC2)CCN(Cc2ccccc2Cl)CC1,0.792,–
CCOC(=O)CNC(=O)N1CCC2(CCCN(CC3CC3)C2=O)C1 (stereo unspecified),0.965,–
O=C(CCC1CCN(C(=O)CCc2cnccn2)CC1)NCc1cccc(Cl)c1,0.932,–
O=C(CC1C(=O)NCCN1Cc1ccccc1)NC1C2CC3CC(C2)CC1C3 (stereo unspecified),0.831,–
Cc1ccc(C(=O)N2CCC3(CCCN(Cc4ccc(F)cc4)C3=O)C2)cc1 (stereo unspecified),0.844,–
CN(C(=O)c1csc2nc(-c3ccccc3)cn12)C1CCCCC1,0.885,–
O=C(CCC1CCN(C(=O)CCc2cccs2)CC1)NCC1CCCO1 (stereo unspecified),0.951,–
COCCN1C(=O)CC(CC(=O)N2CCC(OCc3ccccc3)CC2)(c2cccc(OC)c2)C1=O (stereo unspecified),–,0.914

# Reformatted with bars between the fields: part of the list above.
SMILES | bacterial growth OD600 (polymyxin B 1 µg/mL) | bacterial growth OD600 (polymyxin B 0.75 µg/mL)
O=C(CC1C(=O)NCCN1Cc1ccccc1)NC1C2CC3CC(C2)CC1C3 (stereo unspecified) | 0.831 | –
O=C(CCC1CCN(C(=O)CCc2cccs2)CC1)NCC1CCCO1 (stereo unspecified) | 0.951 | –
